Results are given in words; binding and its absence hold for the method and conditions named. Binding can be weak; no strength is given.

For assay [1], the target named is human FXR ligand binding domain (LBD, residues 243-472) (human). In words: AlphaScreen or HTRF; hexahistidine detection kit; about 20-40 nM His6-FXR LBD, 20-100 nM biotinylated cofactor peptide, 5 ug/mL donor and acceptor beads; 50 mM MOPS, 50 mM NaF, 0.05 mM CHAPS, 0.1 mg/mL BSA, pH 7.4; with vidofludimus (1 uM, Figure 1A; dose series, Figures 1B-D); both purified.

The target is the same in assay [2]. In words: AlphaScreen or HTRF; hexahistidine detection kit; about 20-40 nM His6-FXR LBD, 20-100 nM biotinylated cofactor peptide, 5 ug/mL donor and acceptor beads; 50 mM MOPS, 50 mM NaF, 0.05 mM CHAPS, 0.1 mg/mL BSA, pH 7.4; with 1 uM OCA; both purified. For orientation: Alpha assays give light when donor and acceptor beads are brought close together.

For the molecule PDAASKHKQLSELLRGGSG (biotin on the N-terminus) [SRC3-3 peptide, N-terminally biotinylated], the binding result in assay [1] and in assay [2] was “binds” each time.

These data come from publication PMC7240069.
